# Reference: the supplement of paper PMC8728848
# The list shows a part of the results.
# Assays:
# Experiment in all cases: glycan array binding signal (z-score within array); higher = stronger binding
# Conditions in all cases: glycan notation: IUPAC condensed, linker removed
# [1] = biological target: Fuc(a1-2)Gal(b1-4)GlcNAc(b1-3)Gal(b1-4)GlcNAc(b1-3)Gal(b1-4)GlcNAc
# How it was run: (§1)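 Negative Z-scores can be read as non-binding. The Z-score is calculated within each array and then averaged across arrays of one protein sequence at different concentrations or buffers and across linkers. Arrays, 3228 in all, were curated from the Consortium for Functional Glycomics database and kept only where the protein sequence was available.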
# [2] = biological target: Fuc(a1-2)Gal(b1-4)GlcNAc(b1-3)GalNAc
# How it was run: as §1
# [3] = biological target: Fuc(a1-2)Gal(b1-4)GlcNAc(b1-3)[Fuc(a1-2)Gal(b1-4)GlcNAc(b1-6)]GalNAc
# How it was run: as §1
# [4] = biological target: Fuc(a1-2)Gal(b1-4)GlcNAc(b1-3)[Fuc(a1-3)[Gal(b1-4)]GlcNAc(b1-6)]Gal(b1-4)Glc
# How it was run: as §1
# [5] = biological target: Fuc(a1-2)Gal(b1-4)GlcNAc(b1-6)GalNAc
# How it was run: as §1
# [6] = biological target: Fuc(a1-2)Gal(b1-4)GlcNAc6S
# How it was run: as §1
# [7] = biological target: Fuc(a1-2)Gal(b1-4)[Fuc(a1-3)]GlcNAc
# How it was run: as §1
# [8] = biological target: Fuc(a1-2)Gal(b1-4)[Fuc(a1-3)]GlcNAc(b1-2)Man(a1-3)[Fuc(a1-2)Gal(b1-4)[Fuc(a1-3)]GlcNAc(b1-2)Man(a1-6)]Man(b1-4)GlcNAc(b1-4)[Fuc(a1-6)]GlcNAc
# How it was run: as §1
# [9] = biological target: Fuc(a1-2)Gal(b1-4)[Fuc(a1-3)]GlcNAc(b1-2)[Fuc(a1-2)Gal(b1-4)[Fuc(a1-3)]GlcNAc(b1-4)]Man(a1-3)[Fuc(a1-2)Gal(b1-4)[Fuc(a1-3)]GlcNAc(b1-2)Man(a1-6)]Man(b1-4)GlcNAc(b1-4)GlcNAc
# How it was run: as §1
# [10] = biological target: Fuc(a1-2)Gal(b1-4)[Fuc(a1-3)]GlcNAc(b1-3)Gal(b1-4)[Fuc(a1-3)]GlcNAc
# How it was run: as §1
# [11] = biological target: Fuc(a1-2)Gal(b1-4)[Fuc(a1-3)]GlcNAc(b1-3)Gal(b1-4)[Fuc(a1-3)]GlcNAc(b1-3)Gal(b1-4)[Fuc(a1-3)]GlcNAc
# How it was run: as §1
# [12] = biological target: Fuc(a1-2)Gal(b1-4)[Fuc(a1-3)]GlcNAc(b1-3)GalNAc
# How it was run: as §1
# [13] = biological target: Fuc(a1-2)Gal(b1-4)[Fuc(a1-3)]GlcNAc(b1-3)[Neu5Ac(a2-6)Gal(b1-4)GlcNAc(b1-6)]Gal(b1-4)Glc
# How it was run: as §1
# [14] = biological target: Fuc(a1-2)Gal3S(b1-4)GlcNAc
# How it was run: as §1
# [15] = biological target: Fuc(a1-2)Gal6S(b1-3)GlcNAc
# How it was run: as §1
# [16] = biological target: Fuc(a1-2)Gal6S(b1-3)GlcNAc6S
# How it was run: as §1
# [17] = biological target: Fuc(a1-2)Gal6S(b1-4)Glc
# How it was run: as §1
# [18] = biological target: Fuc(a1-2)Gal6S(b1-4)Glc6S
# How it was run: as §1
# [19] = biological target: Fuc(a1-2)[Gal(a1-3)]Gal
# How it was run: as §1
# [20] = biological target: Fuc(a1-2)[Gal(a1-3)]Gal(b1-3)GalNAc
# How it was run: as §1
# [21] = biological target: Fuc(a1-2)[Gal(a1-3)]Gal(b1-3)GalNAc(b1-3)Gal(a1-4)Gal(b1-4)Glc
# How it was run: as §1
# [22] = biological target: Fuc(a1-2)[Gal(a1-3)]Gal(b1-3)GlcNAc
# How it was run: as §1
# [23] = biological target: Fuc(a1-2)[Gal(a1-3)]Gal(b1-3)GlcNAc(b1-2)Man(a1-3)[Fuc(a1-2)[Gal(a1-3)]Gal(b1-3)GlcNAc(b1-2)Man(a1-6)]Man(b1-4)GlcNAc(b1-4)GlcNAc
# How it was run: as §1
# [24] = biological target: Fuc(a1-2)[Gal(a1-3)]Gal(b1-3)GlcNAc(b1-2)Man(a1-3)[Fuc(a1-2)[Gal(a1-3)]Gal(b1-3)GlcNAc(b1-2)Man(a1-6)]Man(b1-4)GlcNAc(b1-4)[Fuc(a1-6)]GlcNAc
# How it was run: as §1
# [25] = biological target: Fuc(a1-2)[Gal(a1-3)]Gal(b1-3)GlcNAc(b1-3)GalNAc
# How it was run: as §1
# [26] = biological target: Fuc(a1-2)[Gal(a1-3)]Gal(b1-3)GlcNAc(b1-6)GalNAc
# How it was run: as §1
# [27] = biological target: Fuc(a1-2)[Gal(a1-3)]Gal(b1-4)Glc
# How it was run: as §1
# [28] = biological target: Fuc(a1-2)[Gal(a1-3)]Gal(b1-4)GlcNAc
# How it was run: as §1
# [29] = biological target: Fuc(a1-2)[Gal(a1-3)]Gal(b1-4)GlcNAc(b1-2)Man
# How it was run: as §1
# [30] = biological target: Fuc(a1-2)[Gal(a1-3)]Gal(b1-4)GlcNAc(b1-2)Man(a1-3)[Fuc(a1-2)[Gal(a1-3)]Gal(b1-4)GlcNAc(b1-2)Man(a1-6)]Man(b1-4)GlcNAc(b1-4)GlcNAc
# How it was run: as §1
# [31] = biological target: Fuc(a1-2)[Gal(a1-3)]Gal(b1-4)GlcNAc(b1-2)Man(a1-3)[Fuc(a1-2)[Gal(a1-3)]Gal(b1-4)GlcNAc(b1-2)Man(a1-6)]Man(b1-4)GlcNAc(b1-4)[Fuc(a1-6)]GlcNAc
# How it was run: as §1
# [32] = biological target: Fuc(a1-2)[Gal(a1-3)]Gal(b1-4)GlcNAc(b1-3)GalNAc
# How it was run: as §1
# [33] = biological target: Fuc(a1-2)[Gal(a1-3)]Gal(b1-4)GlcNAc(b1-3)[Fuc(a1-2)[Gal(a1-3)]Gal(b1-4)GlcNAc(b1-6)]GalNAc
# How it was run: as §1
# [34] = biological target: Fuc(a1-2)[Gal(a1-3)]Gal(b1-4)GlcNAc(b1-6)GalNAc
# How it was run: as §1
# [35] = biological target: Fuc(a1-2)[Gal(a1-3)]Gal(b1-4)[Fuc(a1-3)]Glc
# How it was run: as §1
# [36] = biological target: Fuc(a1-2)[Gal(a1-3)]Gal(b1-4)[Fuc(a1-3)]GlcNAc
# How it was run: as §1
# [37] = biological target: Fuc(a1-2)[Gal(a1-3)]Gal(b1-4)[Fuc(a1-3)]GlcNAc(b1-3)GalNAc
# How it was run: as §1
# [38] = biological target: Fuc(a1-2)[Gal(a1-4)]Gal(b1-4)GlcNAc
# How it was run: as §1
# [39] = biological target: Fuc(a1-2)[GalNAc(a1-3)]Gal
# How it was run: as §1
# [40] = biological target: Fuc(a1-2)[GalNAc(a1-3)]Gal(b1-3)GalNAc(a1-3)[Fuc(a1-2)]Gal(b1-4)GlcNAc
# How it was run: as §1
# [41] = biological target: Fuc(a1-2)[GalNAc(a1-3)]Gal(b1-3)GalNAc(b1-3)Gal(a1-4)Gal(b1-4)Glc
# How it was run: as §1
# [42] = biological target: Fuc(a1-2)[GalNAc(a1-3)]Gal(b1-3)GlcNAc
# How it was run: as §1
# [43] = biological target: Fuc(a1-2)[GalNAc(a1-3)]Gal(b1-3)GlcNAc(b1-2)Man(a1-3)[Fuc(a1-2)[GalNAc(a1-3)]Gal(b1-3)GlcNAc(b1-2)Man(a1-6)]Man(b1-4)GlcNAc(b1-4)GlcNAc
# How it was run: as §1
# [44] = biological target: Fuc(a1-2)[GalNAc(a1-3)]Gal(b1-3)GlcNAc(b1-2)Man(a1-3)[Fuc(a1-2)[GalNAc(a1-3)]Gal(b1-3)GlcNAc(b1-2)Man(a1-6)]Man(b1-4)GlcNAc(b1-4)[Fuc(a1-6)]GlcNAc
# How it was run: as §1
# [45] = biological target: Fuc(a1-2)[GalNAc(a1-3)]Gal(b1-3)GlcNAc(b1-3)GalNAc
# How it was run: as §1
binder,measurement,setting,value
Pwp6 (Candida glabrata) (protein) MGSSHHHHHHSSGLVPRGSHMASANLPKLTNICQIPDNVKKTSGFKGEIRRIGLFPPGGDYTYLLKFPSTGSTASDTISLTTKPQLSTSGWFPSLFGHTYFIKADLLVYMVAYFVPTETGEYTFKLVNSDDAAVMYVGNPSAFPCGSIDTWPEPRKEDINVCDKISASTKLYMEKGLAYPVRLVWYNGGGDGQFNAQFIDPSGTTHTDWNGYVWQYDACTDCDYK,glycan array binding signal (z-score),[1],-0.691
same,glycan array binding signal (z-score),[2],-0.476
same,glycan array binding signal (z-score),[3],0.027
same,glycan array binding signal (z-score),[4],0.018
same,glycan array binding signal (z-score),[5],0.48
same,glycan array binding signal (z-score),[6],-0.814
same,glycan array binding signal (z-score),[7],-0.497
same,glycan array binding signal (z-score),[8],1.11
same,glycan array binding signal (z-score),[9],0.133
same,glycan array binding signal (z-score),[10],-0.557
same,glycan array binding signal (z-score),[11],-0.241
same,glycan array binding signal (z-score),[12],-0.201
same,glycan array binding signal (z-score),[13],-0.26
same,glycan array binding signal (z-score),[14],-0.759
same,glycan array binding signal (z-score),[15],-0.595
same,glycan array binding signal (z-score),[16],0.097
same,glycan array binding signal (z-score),[17],-0.392
same,glycan array binding signal (z-score),[18],-0.287
same,glycan array binding signal (z-score),[19],-0.563
same,glycan array binding signal (z-score),[20],0.537
same,glycan array binding signal (z-score),[21],0.564
same,glycan array binding signal (z-score),[22],-0.701
same,glycan array binding signal (z-score),[23],0.3
same,glycan array binding signal (z-score),[24],0.262
same,glycan array binding signal (z-score),[25],-0.222
same,glycan array binding signal (z-score),[26],-0.097
same,glycan array binding signal (z-score),[27],-0.608
same,glycan array binding signal (z-score),[28],-0.615
same,glycan array binding signal (z-score),[29],-0.776
same,glycan array binding signal (z-score),[30],-0.312
same,glycan array binding signal (z-score),[31],0.056
same,glycan array binding signal (z-score),[32],-0.517
same,glycan array binding signal (z-score),[33],-0.166
same,glycan array binding signal (z-score),[34],-0.069
same,glycan array binding signal (z-score),[35],-0.621
same,glycan array binding signal (z-score),[36],-0.483
same,glycan array binding signal (z-score),[37],-0.152
same,glycan array binding signal (z-score),[38],-0.961
same,glycan array binding signal (z-score),[39],-0.744
same,glycan array binding signal (z-score),[40],-0.6
same,glycan array binding signal (z-score),[41],0.345
same,glycan array binding signal (z-score),[42],-0.708
same,glycan array binding signal (z-score),[43],0.07
same,glycan array binding signal (z-score),[44],-0.747
same,glycan array binding signal (z-score),[45],0.585

# Part of the list above, set out differently.
binder | measurement | setting | value
Pwp6 (Candida glabrata) (protein) MGSSHHHHHHSSGLVPRGSHMASANLPKLTNICQIPDNVKKTSGFKGEIRRIGLFPPGGDYTYLLKFPSTGSTASDTISLTTKPQLSTSGWFPSLFGHTYFIKADLLVYMVAYFVPTETGEYTFKLVNSDDAAVMYVGNPSAFPCGSIDTWPEPRKEDINVCDKISASTKLYMEKGLAYPVRLVWYNGGGDGQFNAQFIDPSGTTHTDWNGYVWQYDACTDCDYK | glycan array binding signal (z-score) | [3] | 0.027
same | glycan array binding signal (z-score) | [4] | 0.018
same | glycan array binding signal (z-score) | [5] | 0.48
same | glycan array binding signal (z-score) | [6] | -0.814
same | glycan array binding signal (z-score) | [7] | -0.497
same | glycan array binding signal (z-score) | [8] | 1.11
same | glycan array binding signal (z-score) | [9] | 0.133
same | glycan array binding signal (z-score) | [10] | -0.557
same | glycan array binding signal (z-score) | [11] | -0.241
same | glycan array binding signal (z-score) | [12] | -0.201
same | glycan array binding signal (z-score) | [13] | -0.26
same | glycan array binding signal (z-score) | [14] | -0.759
same | glycan array binding signal (z-score) | [15] | -0.595
